Experimental data published in article doi:10.1101/2021.06.22.449398.
Results are given in words; binding and its absence hold for the method and conditions named. In cells and extracts the contact can be indirect. Some entries that bind do so weakly or less than the wild type.

Chains of the proteins cited; added tags and fusions are not shown. Lines headed by an entry give the natural chain unless they say otherwise; changes in a name come on top. Residues count along the entry.
UniProt Q7Z2W4, whole entry: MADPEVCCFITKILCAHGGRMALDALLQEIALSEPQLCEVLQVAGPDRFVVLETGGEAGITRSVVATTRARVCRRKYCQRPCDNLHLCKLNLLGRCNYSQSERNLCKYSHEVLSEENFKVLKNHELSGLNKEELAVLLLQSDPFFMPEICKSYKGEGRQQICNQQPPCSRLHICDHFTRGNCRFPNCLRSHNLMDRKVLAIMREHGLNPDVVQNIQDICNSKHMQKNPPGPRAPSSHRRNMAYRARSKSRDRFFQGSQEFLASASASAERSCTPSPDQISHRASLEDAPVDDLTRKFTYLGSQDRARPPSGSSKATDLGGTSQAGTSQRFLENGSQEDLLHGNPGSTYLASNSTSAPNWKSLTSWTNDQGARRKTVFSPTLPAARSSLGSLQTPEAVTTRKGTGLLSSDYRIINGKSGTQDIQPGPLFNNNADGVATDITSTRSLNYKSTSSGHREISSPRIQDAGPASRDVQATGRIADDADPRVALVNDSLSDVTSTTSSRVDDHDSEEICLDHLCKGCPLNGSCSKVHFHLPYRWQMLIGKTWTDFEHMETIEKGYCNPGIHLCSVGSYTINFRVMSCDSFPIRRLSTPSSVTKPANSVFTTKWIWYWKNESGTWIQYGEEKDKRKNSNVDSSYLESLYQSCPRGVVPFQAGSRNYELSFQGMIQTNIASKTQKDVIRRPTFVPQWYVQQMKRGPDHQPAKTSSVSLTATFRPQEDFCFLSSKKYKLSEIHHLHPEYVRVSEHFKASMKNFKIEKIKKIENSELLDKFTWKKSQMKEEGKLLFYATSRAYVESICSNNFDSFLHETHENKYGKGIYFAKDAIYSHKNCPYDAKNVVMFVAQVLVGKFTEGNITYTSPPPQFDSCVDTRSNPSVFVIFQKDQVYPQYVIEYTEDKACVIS
UniProt Q7Z2W4, 1-256, stated change not applied: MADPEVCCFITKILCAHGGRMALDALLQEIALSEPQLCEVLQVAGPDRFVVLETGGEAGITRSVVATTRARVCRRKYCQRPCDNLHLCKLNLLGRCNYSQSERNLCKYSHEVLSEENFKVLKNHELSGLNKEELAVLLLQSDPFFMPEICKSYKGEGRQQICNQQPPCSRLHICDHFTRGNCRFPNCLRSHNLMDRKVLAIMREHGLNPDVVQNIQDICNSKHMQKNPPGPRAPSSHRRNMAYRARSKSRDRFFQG
UniProt Q7Z2W4, 1-352, stated change not applied: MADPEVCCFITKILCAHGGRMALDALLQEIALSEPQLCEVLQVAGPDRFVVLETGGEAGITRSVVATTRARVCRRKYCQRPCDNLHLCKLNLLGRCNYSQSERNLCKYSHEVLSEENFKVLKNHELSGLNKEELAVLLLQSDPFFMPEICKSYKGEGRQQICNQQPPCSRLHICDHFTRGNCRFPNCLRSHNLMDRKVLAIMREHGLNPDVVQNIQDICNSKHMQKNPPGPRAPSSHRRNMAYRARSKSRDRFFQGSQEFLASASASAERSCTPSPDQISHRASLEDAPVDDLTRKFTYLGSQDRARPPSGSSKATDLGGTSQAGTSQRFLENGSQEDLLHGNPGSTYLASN
UniProt O15037, whole entry: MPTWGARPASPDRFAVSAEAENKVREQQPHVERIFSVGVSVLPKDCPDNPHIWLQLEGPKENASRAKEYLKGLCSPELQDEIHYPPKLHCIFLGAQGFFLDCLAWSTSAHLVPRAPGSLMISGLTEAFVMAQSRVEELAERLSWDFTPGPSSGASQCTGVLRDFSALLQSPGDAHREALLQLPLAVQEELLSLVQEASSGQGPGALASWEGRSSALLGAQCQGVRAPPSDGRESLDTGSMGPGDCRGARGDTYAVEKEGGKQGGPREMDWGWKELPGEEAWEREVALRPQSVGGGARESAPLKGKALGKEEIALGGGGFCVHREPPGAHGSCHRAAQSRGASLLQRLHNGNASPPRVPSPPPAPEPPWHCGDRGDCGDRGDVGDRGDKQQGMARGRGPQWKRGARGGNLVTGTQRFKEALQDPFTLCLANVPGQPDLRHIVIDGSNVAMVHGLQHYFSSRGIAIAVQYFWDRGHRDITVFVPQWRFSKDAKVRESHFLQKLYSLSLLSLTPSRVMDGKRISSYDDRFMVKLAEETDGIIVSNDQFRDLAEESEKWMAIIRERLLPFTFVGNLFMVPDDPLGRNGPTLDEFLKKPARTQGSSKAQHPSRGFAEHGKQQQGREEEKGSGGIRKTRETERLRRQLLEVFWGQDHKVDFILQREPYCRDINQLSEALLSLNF
UniProt Q14258, whole entry: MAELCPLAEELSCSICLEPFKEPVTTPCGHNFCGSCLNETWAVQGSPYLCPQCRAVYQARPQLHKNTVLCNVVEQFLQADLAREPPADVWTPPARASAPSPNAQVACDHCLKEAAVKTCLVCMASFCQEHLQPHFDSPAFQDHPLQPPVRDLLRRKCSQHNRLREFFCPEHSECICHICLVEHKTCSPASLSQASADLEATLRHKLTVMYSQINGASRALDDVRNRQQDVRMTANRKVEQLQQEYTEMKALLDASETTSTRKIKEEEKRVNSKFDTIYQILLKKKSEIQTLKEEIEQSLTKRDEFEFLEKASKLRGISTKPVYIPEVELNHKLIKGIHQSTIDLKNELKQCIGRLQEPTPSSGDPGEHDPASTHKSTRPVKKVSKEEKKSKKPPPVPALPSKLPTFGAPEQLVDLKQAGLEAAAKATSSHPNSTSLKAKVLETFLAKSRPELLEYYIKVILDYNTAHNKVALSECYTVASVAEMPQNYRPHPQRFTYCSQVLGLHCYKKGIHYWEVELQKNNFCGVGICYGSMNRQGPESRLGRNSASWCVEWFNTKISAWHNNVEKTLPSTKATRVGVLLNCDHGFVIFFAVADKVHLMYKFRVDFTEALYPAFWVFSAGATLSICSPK

Columns and labels:
Test in all cases: co-IP
[1] = target: GFP-tagged ZAP 1-256 truncation mutant (human) (UniProt Q7Z2W4)
[2] = target: GFP-tagged ZAP 1-352 truncation mutant (human) (UniProt Q7Z2W4)
[3] = target: GFP-tagged ZAP-L C899S (inactivated CaaX box) (human) (UniProt Q7Z2W4)
[4] = target: GFP-tagged ZAP-S with added CaaX box (GFP-ZAP-S + CVIS) (human) (UniProt Q7Z2W4)
[5] = target: GFP-tagged long isoform of zinc finger antiviral protein (GFP-ZAP-L) (human) (UniProt Q7Z2W4)

Measured: binding

KHNYN (endogenous) (from UniProt O15037 1-678)
binds: all assays above

TRIM25 (endogenous) (from UniProt Q14258 1-630)
not listed: [3]
binds: all other assays above
